The values that follow come from PMC12074021.

Amino acid sequences for entries named in this document (tags omitted).
UniProt Q9ES90: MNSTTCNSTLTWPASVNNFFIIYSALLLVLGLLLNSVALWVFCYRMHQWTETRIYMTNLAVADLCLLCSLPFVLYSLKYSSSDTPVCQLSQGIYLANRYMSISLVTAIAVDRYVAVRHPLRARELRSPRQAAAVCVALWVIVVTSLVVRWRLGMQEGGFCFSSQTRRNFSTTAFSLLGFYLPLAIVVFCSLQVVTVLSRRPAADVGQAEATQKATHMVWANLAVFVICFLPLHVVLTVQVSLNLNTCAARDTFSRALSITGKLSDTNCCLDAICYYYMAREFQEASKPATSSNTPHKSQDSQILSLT
UniProt Q9EPK8: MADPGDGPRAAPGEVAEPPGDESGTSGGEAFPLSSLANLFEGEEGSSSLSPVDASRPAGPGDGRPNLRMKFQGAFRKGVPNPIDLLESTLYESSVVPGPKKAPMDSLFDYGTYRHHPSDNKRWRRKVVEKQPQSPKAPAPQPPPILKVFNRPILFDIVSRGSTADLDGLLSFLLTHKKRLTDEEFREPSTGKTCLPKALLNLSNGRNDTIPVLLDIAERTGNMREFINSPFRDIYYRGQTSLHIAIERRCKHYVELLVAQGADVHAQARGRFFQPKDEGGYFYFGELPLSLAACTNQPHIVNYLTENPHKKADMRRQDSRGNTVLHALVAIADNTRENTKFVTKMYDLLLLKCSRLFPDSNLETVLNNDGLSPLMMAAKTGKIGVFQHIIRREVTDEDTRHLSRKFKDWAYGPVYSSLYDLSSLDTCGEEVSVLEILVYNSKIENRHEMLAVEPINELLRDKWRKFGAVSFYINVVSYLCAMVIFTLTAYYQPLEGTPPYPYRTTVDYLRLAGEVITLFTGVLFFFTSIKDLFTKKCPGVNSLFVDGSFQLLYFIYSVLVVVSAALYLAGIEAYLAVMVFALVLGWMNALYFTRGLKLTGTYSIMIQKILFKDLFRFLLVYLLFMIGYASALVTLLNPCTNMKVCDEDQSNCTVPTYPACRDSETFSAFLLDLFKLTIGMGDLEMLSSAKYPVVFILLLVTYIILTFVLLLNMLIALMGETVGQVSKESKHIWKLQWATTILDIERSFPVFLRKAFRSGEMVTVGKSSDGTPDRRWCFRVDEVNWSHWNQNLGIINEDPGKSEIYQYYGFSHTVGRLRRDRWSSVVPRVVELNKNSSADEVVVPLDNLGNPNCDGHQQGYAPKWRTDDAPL

Assay [1] addresses G protein-coupled receptor 35 (GPR35) (mouse (endogenous in primary mesenteric artery ECs)) (UniProt Q9ES90). The assay can be described thus: co-IP; lysates of primary mesenteric ECs from WT-young and WT-aging mice; IP buffer 50 mmol/L Tris-HCl pH 7.4, 150 mmol/L NaCl, 0.3% NP-40, 2 mmol/L EDTA; IP with anti-GPR35 antibody or control IgG overnight at 4°C, IB with anti-TRPV4 antibody; aging ECs also incubated with Thonningianin A (10 μM), Carfilzomib (1 μM), Naringin (10 μM), Diosmin (10 μM) or Navitoclax (1 μM) for 30 min before harvest.

Assay [2] has the same target. The assay can be described thus: proximity ligation; Duolink PLA on fixed, permeabilised primary mesenteric ECs from WT-young and WT-aging mice (TRPV4EC-/- and AAV-FLT1-shRNA (GPR35) ECs as controls); aging ECs also treated with Thonningianin A (10 μM) or Carfilzomib (1 μM).

Results are given in words; binding and its absence hold for the method and conditions named. Binding seen in cells or lysates may run through a third protein. Some binding calls cover weakened binding; strength is not graded here.

For the substance “Transient receptor potential channel V4 (TRPV4) (from UniProt Q9EPK8 1-871)”, the binding entry in assay [1] and in assay [2] was “binds” in each case.
